Publication PMC7913596, “Tribbles Pseudokinase 2 (TRIB2) Regulates Expression of Binding Partners in Bovine Granulosa Cells” (International Journal of Molecular Sciences, 2021)
These are yes or no findings as the source states them, for the method shown. In cells and extracts the contact can be indirect. Some entries that bind do so weakly or less than the wild type. Tags and fused reporters may be left off the sequences shown.

T1: Tribbles pseudokinase 2 (TRIB2), AcGFP1 fusion in HEK 293 cells (pAcGFP1-TRIB2) (bovine) (UniProt Q5GLH2)
T1 sequence: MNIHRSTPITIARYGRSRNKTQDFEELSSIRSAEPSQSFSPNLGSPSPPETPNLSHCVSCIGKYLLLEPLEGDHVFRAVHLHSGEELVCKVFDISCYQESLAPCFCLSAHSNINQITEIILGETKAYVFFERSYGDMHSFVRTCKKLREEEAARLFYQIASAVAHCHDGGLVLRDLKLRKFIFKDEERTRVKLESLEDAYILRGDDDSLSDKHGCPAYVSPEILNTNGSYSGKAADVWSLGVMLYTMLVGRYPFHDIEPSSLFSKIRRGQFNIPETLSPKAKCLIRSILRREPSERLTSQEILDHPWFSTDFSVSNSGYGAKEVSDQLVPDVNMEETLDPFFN


Columns and labels:
[1] = target: T1, Tribbles pseudokinase 2 (TRIB2), AcGFP1 fusion in HEK 293 cells (pAcGFP1-TRIB2) (bovine); assay: co-IP; Matchmaker Co-IP system in co-transfected HEK 293 cells (pAcGFP1 bait, ProLabel prey); read-out by ProLabel enzyme complementation, luminescence (RLU); fold induction 60 min after substrate against the experimental control (pAcGFP1-TRIB2 and ProLabel-empty vector)
[2] = target: T1, Tribbles pseudokinase 2 (TRIB2), AcGFP1 fusion in HEK 293 cells (pAcGFP1-TRIB2) (bovine); assay: co-IP; co-transfected HEK cells; protein extracts precipitated with anti-AcGFP antibodies, Western blot with anti-INPPL1 or anti-INHBA

| Binder | binding [1] | binding [2] |
| --- | --- | --- |
| 5'-nucleotidase ecto (NT5E), ProLabel prey in HEK 293 cells (protein, UniProt Q05927 27-549) WELTILHTNDVHSRLEQTSEDSSKCVNASRCVGGVARLATKVHQIRRAEPHVLLLDAGDQYQGTIWFTVYKGTEVAHFMNALGYDAMALGNHEFDNGVEGLIDPLLKEVNFPILSANIKAKGPLASKISGLYSPYKILTVGDEVVGIVGYTSKETPFLSNPGTNLVFEDEITALQPEVDKLKTLNVNKIIALGHSGFEVDKLIAQKVKGVDVVVGGHSNTFLYTGNPPSKEVPAGQYPFIVTSDDGRKVPVVQAYAFGKYLGYLKVEFDEKGNVVTSHGNPILLNSSIPEDPNIKADINKWRVKLDNYSTQELGKTIVYLDGTAQSCRFRECNMGNLICDAMINNNLRHPDEMSWNHVSMCILNGGGIRSPIDERNNGTITWENLAAVLPFGGTFDLVQLKGSTLKKAFEHSVHRYGQATGEFLQVGGIHVVYDISRNPGDRVVKLEVLCTQCRVPSYEPLRMDKVYKVILPSFLVSGGDGFQMIKDEKIKHDSGDQDINVVSGYISKMKVLYPAVEGRIQFS | binds |  |
| stearoyl-CoA desaturase (SCD), ProLabel prey in HEK 293 cells (protein, UniProt Q9TT94 1-359) MPAHLLQEEISSSYTTTTTITAPPSRVLQNGGGKLEKTPLYLEEDIRPEMRDDIYDPTYQDKEGPKPKLEYVWRNIILMSLLHLGALYGITLIPTCKIYTYIWVLFYYLMGALGITAGAHRLWSHRTYKARLPLRVFLIIGNTMAFQNDVFEWSRDHRAHHKFSETDADPHNSRRGFFFSHVGWLLVRKHPAVKEKGSTLNLSDLRAEKLVMFQRRYYKPGVLLLCFILPTLVPWYLWDETFQNSLFFATLFRYALGLNVTWLVNSAAHMYGYRPYDKTINPRENILVSLGAAGEGFHNYHHTFPYDYSASEYRWHINFTTFFIDCMAAIGLAYDRKKVSKAAILARIKRTGEESYKSG | binds |  |
| succinate dehydrogenase complex iron sulfur subunit B (SDHB), ProLabel prey in HEK 293 cells (protein, UniProt Q3T189 29-280) AQTAAAAAPRIKKFAIYRWDPDKTGDKPHMQTYEIDLNNCGPMVLDALIKIKNEIDSTLTFRRSCREGICGSCAMNINGGNTLACTRRIDTNLSKVSKIYPLPHMYVIKDLVPDLSNFYAQYKSIEPYLKKKDESQGGKEQYLQSIEDREKLDGLYECILCACCSTSCPSYWWNGDKYLGPAVLMQAYRWMIDSRDDFTEERLAKLQDPFSLYRCHTIMNCTQTCPKGLNPGKAIAEIKKMMATYKEKQASA | binds |  |
| inositol polyphosphate phosphatase-like 1 (INPPL1), ProLabel prey in HEK 293 cells (natural protein, Bos taurus, UniProt E1BBJ7 1-1264, looked up, Bos taurus inositol polyphosphate phosphatase-like 1; Bands at around 50 kDa and 100 kDa after co-IP, around 160 kDa in extracts not subjected to co-IP; The insert may be the cDNA fragment found in the two-hybrid screen; also called SHIP2; SH2-containing inositol 5'-phosphatase 2; source: HEK 293, transfected, in lysate) MASACGAPGPGGAGPGAALGSPAPAWYHRDLSRAAAEELLARAGRDGSFLVRDSESVAGAFALCVLYQKHVHTYRILPDGEDFLAVQTSQGVPVRRFQTLGELISLYAQPNQGLVCALLLPVEREREPDPPDDRDASDGEDEKPPLPPRSGSTSISAPMGPSSPPAAPETPTTPAAESAPNGLSTVSHEYLKGSYGLDLEAVRGGASNLPHLTRTLATSCRRLHSEVDKVLSGLEILSKVFDQQSSPMVTRLLQQQNPPQTGEQELESLVLKLSVLKDFLSGIQKKALKALQDMSSTAPPAPLQPSTRKAKTIPVQAFEVKLDVTLGDLTKIGKSQKFTLSVDVEGGRLVLLRRQRDSQEDWTTFTHDRIRQLIKSQRVQNKLGVVFEKEKDRTQRKDFIFVSARKREAFCQLLQLMKNKHSKQDEPDMISIFIGTWNMGSVPPPKNVTSWFTSKGLGKTLDEVTVTIPHDIYVFGTQENSVGDREWLDLLRGGLKELTDLDYRPIAMQSLWNIKVAVLVKPEHENRISHVSTSSVKTGIANTLGNKGAVGVSFMFNGTSFGFVNCHLTSGNEKTARRNQNYLDILRLLTLGDRQLSAFDISLRFTHLFWFGDLNYRLDMDIQEILNYISRKEFEPLLRVDQLNLEREKHKVFLRFSEEEISFPPTYRYERGSRDTYAWHKQKPTGVRTNVPSWCDRILWKSYPETHIICNSYGCTDDIVTSDHSPVFGTFEVGVTSQFISKKGLSKTSDQAYIEFESIEAIVKTASRTKFFIEFYSTCLEEYKKSFENDAQSSDNINFLKVQWSSRQLPTLNPILADIEYLQDQHLLLTVKSMDGYESYGECVVALKSMIGSTAQQFLTFLSHRGEETGNIRGSMKVRVPTERLGTRERLYEWISIDKDEAGAKSKAPSVSRGSQDPRSGSRKPASTEASCPLSKLFEEPEKPPPTGRPPAPPRAAPREEPLTPRLKPEGAPELEGVVAPPPKNSFNNPAYYVLEGVPHQLLPPEPPSPARAPVPPATKNKVAITVPAPQLGRHRPPRAGEGSSSDEDSGGTLPPPDFPPPPLPDSAIFLPPGLDPLPGPVIRGRSGGEARGPPPPKAHPRPPLPPGPSPASTFLGDVASGDDRSCSVLQMAKTLSEVDYAPAGPGRAMLLPGPLELQPPRGLPSDYGRPLSFPPPRIRESIQEDLAEEAPCPQVGRAGGLGEAGMGAWLRAIGLERYEEGLVHNGWDDLEFLSDITEEDLEEAGVQDPAHKRLLLDTLQLSK |  | binds |
